Measurements taken from US11872270B2, “A*03 restricted peptides for use in immunotherapy against cancers and related methods” (Immatics Biotechnologies GmbH, priority 2018, dated 2024).
For some assays here: For expression read-outs the peptide stands for its source gene, whose mRNA was measured; the gene is not named for every peptide.

What was measured:
[1] = system: HLA molecules from shock-frozen tissue samples; assay: Identification and quantitation of tumor associated peptides presented on the cell surface (HLA immunoprecipitation, LC-MS); parameters: species or system human
[2] = system: source genes (mRNA) in tumor and normal tissue; assay: Expression profiling of genes encoding the peptides (RNAseq); parameters: species or system human
[3] = cancer entities on which the peptide was detected by LC-MS of HLA ligands
[4] = tumor entities in which the source gene is over-expressed vs panel of normal tissues (Table 9a)
[5] = tumor entities in which the source gene is highly over-expressed vs panel of normal tissues (Table 9a)
[6] = cancer entities on which the peptide was found presented (Table 8b)
[7] = tumor entities in which the source gene is highly over-expressed vs panel of normal tissues (Table 9b)
[8] = tumor entities in which the source gene is over-expressed vs panel of normal tissues (Table 9b)

| Substance | Peptide Presentation on cancer entities [1, 3] | Gene Expression in tumor samples: over-expressed (+) [2, 4] | Peptide Presentation on cancer entities [1, 6] | Gene Expression in tumor samples: over-expressed (+) [2, 8] | also measured |
| --- | --- | --- | --- | --- | --- |
| 185: peptide found in SLC6A2 (gene looked up) (SIINFKPLTY; listed as Homo sapiens) [compound 185] | HNSCC | HCC | – | – | – |
| 186: peptide found in LPAR4 (gene looked up) (CTLPFKIFY; listed as Homo sapiens) [compound 186] | HNSCC, NSCLCadeno, PACA, UEC | AML, GBM | – | – | – |
| 189: peptide found in FOXP3 (gene looked up) (KVFEEPEDFLK; listed as Homo sapiens) [compound 189] | BRCA, CCC, CRC, GBC, GC, HCC, HNSCC, MEL, NHL, NSCLCadeno, NSCLCsquam, OSCAR, PACA, PRCA, RCC, SCLC, UBC, UEC | NHL | – | – | – |
| 196: peptide found in MET (gene looked up) (AISSTVLGK; listed as Homo sapiens) [compound 196] | GBC, PACA, UEC | CCC, GBC, RCC | – | – | – |
| 201: peptide found in SRMS (gene looked up) (KVADFGLARLLK; listed as Homo sapiens) [compound 201] | BRCA, CRC, NHL | BRCA, CLL, OC, PRCA | – | – | – |
| 205: peptide found in AR (gene looked up) (RVYPRPPSK; listed as Homo sapiens) [compound 205] | CCC, HCC, UEC | BRCA, HCC, PRCA | – | – | – |
| 210: peptide found in ADCY10 (gene looked up) (KIFQGQINK; listed as Homo sapiens) [compound 210] | HCC | HCC | – | – | – |
| 212: peptide found in NUP155 (gene looked up) (RTIDRSVFK; listed as Homo sapiens) [compound 212] | MEL, UEC | NSCLCsquam, SCLC | – | – | – |
| 214: peptide found in DNTT (gene looked up) (KLFTSVFGVGLK; listed as Homo sapiens) [compound 214] | AML | – | – | – | Gene Expression in tumor samples: highly over-expressed (++) [2, 5]: AML |
| 215: peptide found in OXTR (gene looked up) (KIWQNLRLK; listed as Homo sapiens) [compound 215] | CCC, CRC | GBM, OC | – | – | Gene Expression in tumor samples: highly over-expressed (++) [2, 5]: CCC |
| 216: peptide found in OXTR (gene looked up) (RVSSVKLISK; listed as Homo sapiens) [compound 216] | CCC, CRC, NSCLCadeno, PRCA | GBM, OC | – | – | Gene Expression in tumor samples: highly over-expressed (++) [2, 5]: CCC |
| 220: peptide found in CDK6 (gene looked up) (ALPRQAFHSK; listed as Homo sapiens) [compound 220] | AML | GBM, GC | – | – | Gene Expression in tumor samples: highly over-expressed (++) [2, 5]: AML |
| 225: peptide found in AR (gene looked up) (RVYPRPPSKTY; listed as Homo sapiens) [compound 225] | HCC, UEC | BRCA, HCC, PRCA | – | – | – |
| 258: peptide found in F5 (gene looked up) (QVRDTLKIVFK; listed as Homo sapiens) [compound 258] | – | – | CCC, HCC, MEL, NSCLCadeno | CCC | Gene Expression in tumor samples: highly over-expressed (++) [2, 7]: HCC |
| 260: peptide found in PGR (gene looked up) (VIAAQLPK; listed as Homo sapiens) [compound 260] | – | – | CCC, NSCLCadeno, OC | BRCA | Gene Expression in tumor samples: highly over-expressed (++) [2, 7]: UEC |
| 262: peptide found in PGR (gene looked up) (TMWQIPQEFVK; listed as Homo sapiens) [compound 262] | – | – | UEC | BRCA | Gene Expression in tumor samples: highly over-expressed (++) [2, 7]: UEC |
| 266: peptide found in GPRC6A (gene looked up) (RNLNTPVVK; listed as Homo sapiens) [compound 266] | – | – | CRC, OSCAR | CRC | – |
| 270: peptide found in EPHA6 (gene looked up) (KFKPNQYTK; listed as Homo sapiens) [compound 270] | – | – | CRC, MEL | CCC | – |
| 271: peptide found in CCL22 (gene looked up) (RLPLRVVKH; listed as Homo sapiens) [compound 271] | – | – | NHL | NSCLCadeno | Gene Expression in tumor samples: highly over-expressed (++) [2, 7]: NHL |
| 272: peptide found in KLK3 (gene looked up) (AVCGGVLVH; listed as Homo sapiens) [compound 272] | PRCA | – | – | – | Gene Expression in tumor samples highly over-expressed (++) ([2]; source gene of the peptide, RNAseq, tumors compared to a panel of normal tissues): PRCA |
